According to US7105305:
These are yes or no findings as the source states them, for the method shown. Some entries that bind do so weakly or less than the wild type.

Chains of the proteins cited; added tags and fusions are not shown. Residues count along the entry.
UniProt P26450, residues 2-724: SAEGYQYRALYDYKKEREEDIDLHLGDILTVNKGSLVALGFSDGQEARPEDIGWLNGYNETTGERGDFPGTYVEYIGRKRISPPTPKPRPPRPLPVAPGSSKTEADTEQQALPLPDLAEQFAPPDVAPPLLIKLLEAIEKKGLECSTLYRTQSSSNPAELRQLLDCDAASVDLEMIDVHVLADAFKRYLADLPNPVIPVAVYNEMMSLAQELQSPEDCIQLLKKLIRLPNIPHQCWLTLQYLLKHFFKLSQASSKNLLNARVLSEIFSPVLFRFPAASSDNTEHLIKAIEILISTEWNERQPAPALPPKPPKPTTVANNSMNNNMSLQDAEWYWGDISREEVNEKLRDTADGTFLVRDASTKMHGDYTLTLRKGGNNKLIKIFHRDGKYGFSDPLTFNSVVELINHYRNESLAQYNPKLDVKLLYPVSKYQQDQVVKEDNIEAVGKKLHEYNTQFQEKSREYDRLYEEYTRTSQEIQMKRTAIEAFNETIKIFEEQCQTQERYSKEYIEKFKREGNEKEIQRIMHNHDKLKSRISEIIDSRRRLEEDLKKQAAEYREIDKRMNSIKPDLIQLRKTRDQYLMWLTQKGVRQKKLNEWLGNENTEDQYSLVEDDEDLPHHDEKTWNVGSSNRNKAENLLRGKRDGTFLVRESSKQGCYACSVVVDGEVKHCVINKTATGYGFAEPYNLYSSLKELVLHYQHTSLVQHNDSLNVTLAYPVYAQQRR

Molecular target: 85 kD protein of BALB/c 3T3 cells (mouse) (UniProt P26450)
Assay: competition: peptide preincubated with 3T3 lysate before the immobilized receptor

| Binder | binding |
| --- | --- |
| MDMSKDESIDYVPMLDM (phosphotyrosine at position 719 (the only Tyr of the peptide)) [peptide Y719P short] | binds |
| GGYMDMSKDESID (phosphotyrosine at position 708 (the only Tyr of the peptide)) [peptide Y708P short] | binds |
